# Screening data

Data taken from PubChem BioAssay AID504749, deposited by NCATS (2011).

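Malaria parasite (P. falciparum) lines kept in red blood cells; parasite DNA is measured by SYBR Green fluorescence after lysis, 72 h after compound addition. Each compound was titrated across a series from about 0.000037 to 29 µM. The number is the fitted AC50, the concentration giving a half-maximal change in signal; a lower value means higher potency, whether the curve shows a decrease or an increase. Calls follow the curve class and fit quality: every row here is inconclusive, covering signal-raising curves and weak, poorly fitted, partial or highest-dose-only inhibition curves.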

Values are in nM. All entries here are filed as inconclusive. These entries are mostly ones the record files as inconclusive; other results of the assay are not listed here. Potencies fitted to partial, single-point or poorly fitting curves are rough.

Compound | setting | potency (nM) | curve as filed
Cc1c(C(=O)NN2CCCCC2)nn(-c2ccc(Cl)cc2Cl)c1-c1ccc(Cl)cc1 | ECU | 10000 | inhibitor, single point
Cc1c(C(=O)NN2CCCCC2)nn(-c2ccc(Cl)cc2Cl)c1-c1ccc(Cl)cc1 | CP192 | 19011 | inhibitor, single point
Cc1c(C(=O)NN2CCCCC2)nn(-c2ccc(Cl)cc2Cl)c1-c1ccc(Cl)cc1 | CP269 | 19011 | inhibitor, single point
Cc1c(C(=O)NN2CCCCC2)nn(-c2ccc(Cl)cc2Cl)c1-c1ccc(Cl)cc1 | ATS189 | 11220 | inhibitor, single point
Cc1c(C(=O)NN2CCCCC2)nn(-c2ccc(Cl)cc2Cl)c1-c1ccc(Cl)cc1 | CP201 | 13459 | inhibitor, single point
Cc1c(C(=O)NN2CCCCC2)nn(-c2ccc(Cl)cc2Cl)c1-c1ccc(Cl)cc1 | CP266 | 19011 | inhibitor, single point
Cc1c(C(=O)NN2CCCCC2)nn(-c2ccc(Cl)cc2Cl)c1-c1ccc(Cl)cc1 | CP260 | 17782 | inhibitor, single point
Cc1c(C(=O)NN2CCCCC2)nn(-c2ccc(Cl)cc2Cl)c1-c1ccc(Cl)cc1 | CP305 | 19011 | inhibitor, single point
Cc1c(C(=O)NN2CCCCC2)nn(-c2ccc(Cl)cc2Cl)c1-c1ccc(Cl)cc1 | CP329 | 19011 | inhibitor, single point
Cc1c(C(=O)NN2CCCCC2)nn(-c2ccc(Cl)cc2Cl)c1-c1ccc(Cl)cc1 | CP250 | 11220 | inhibitor, single point
Cc1c(C(=O)NN2CCCCC2)nn(-c2ccc(Cl)cc2Cl)c1-c1ccc(Cl)cc1 | CP325 | 19011 | inhibitor, single point
Cc1c(C(=O)NN2CCCCC2)nn(-c2ccc(Cl)cc2Cl)c1-c1ccc(Cl)cc1 | CP268 | 19011 | inhibitor, single point
Cc1c(C(=O)NN2CCCCC2)nn(-c2ccc(Cl)cc2Cl)c1-c1ccc(Cl)cc1 | CP211 | 13459 | inhibitor, single point
Cc1c(C(=O)NN2CCCCC2)nn(-c2ccc(Cl)cc2Cl)c1-c1ccc(Cl)cc1 | CP185 | 17782 | inhibitor, single point
Cc1c(C(=O)NN2CCCCC2)nn(-c2ccc(Cl)cc2Cl)c1-c1ccc(Cl)cc1 | CP286 | 17782 | inhibitor, single point
Cc1c(C(=O)NN2CCCCC2)nn(-c2ccc(Cl)cc2Cl)c1-c1ccc(Cl)cc1 | DFO2036 | 17782 | inhibitor, single point
CCN(CC)CC#CCOC(=O)[C@@](O)(c1ccccc1)C1CCCCC1 | DFO2036 | 10000 | inhibitor, single point
CCN(CC)CC#CCOC(=O)[C@@](O)(c1ccccc1)C1CCCCC1 | P93_24 | 11220 | inhibitor, single point
CCN(CC)CC#CCOC(=O)[C@@](O)(c1ccccc1)C1CCCCC1 | PC49 | 10000 | inhibitor, single point
CCN(CC)CC#CCOC(=O)[C@@](O)(c1ccccc1)C1CCCCC1 | TAB109 | 14125 | inhibitor, single point
CCN(CC)CC#CCOC(=O)[C@@](O)(c1ccccc1)C1CCCCC1 | CP335 | 11995 | inhibitor, partial curve
CCN(CC)CC#CCOC(=O)[C@@](O)(c1ccccc1)C1CCCCC1 | PAD | 12589 | inhibitor, single point
CCN(CC)CC#CCOC(=O)[C@@](O)(c1ccccc1)C1CCCCC1 | PC15 | 5012 | inhibitor, partial curve
CCN(CC)CC#CCOC(=O)[C@@](O)(c1ccccc1)C1CCCCC1 | DIV30 | 6012 | inhibitor, partial curve
CCN(CC)CC#CCOC(=O)[C@@](O)(c1ccccc1)C1CCCCC1 | CP329 | 19011 | inhibitor, single point
CCN(CC)CC#CCOC(=O)[C@@](O)(c1ccccc1)C1CCCCC1 | Dd2 | 8912 | inhibitor, partial curve
CCN(CC)CC#CCOC(=O)[C@@](O)(c1ccccc1)C1CCCCC1 | ICS | 10000 | inhibitor, single point
CCN(CC)CC#CCOC(=O)[C@@](O)(c1ccccc1)C1CCCCC1 | GB4 | 15101 | inhibitor, partial curve
CCN(CC)CC#CCOC(=O)[C@@](O)(c1ccccc1)C1CCCCC1 | PC26 | 7569 | inhibitor, partial curve
CCN(CC)CC#CCOC(=O)[C@@](O)(c1ccccc1)C1CCCCC1 | TAB165 | 14125 | inhibitor, single point
CCN(CC)CC#CCOC(=O)[C@@](O)(c1ccccc1)C1CCCCC1 | P94_40 | 17782 | inhibitor, single point
Clc1ccc(CS[C@@H](Cn2ccnc2)c2ccc(Cl)cc2Cl)cc1 | CP305 | 8087 | inhibitor, single point
Clc1ccc(CS[C@@H](Cn2ccnc2)c2ccc(Cl)cc2Cl)cc1 | CP256 | 7080 | inhibitor, single point

Some entries from above, unchanged:

Compound	setting	potency (nM)	curve as filed
Cc1c(C(=O)NN2CCCCC2)nn(-c2ccc(Cl)cc2Cl)c1-c1ccc(Cl)cc1	CP329	19011	inhibitor, single point
CCN(CC)CC#CCOC(=O)[C@@](O)(c1ccccc1)C1CCCCC1	TAB109	14125	inhibitor, single point
Cc1c(C(=O)NN2CCCCC2)nn(-c2ccc(Cl)cc2Cl)c1-c1ccc(Cl)cc1	CP286	17782	inhibitor, single point